Residue numbers refer to the chain shown, from its start. Results are given in words; binding and its absence hold for the method and conditions named. Some binding calls cover weakened binding; strength is not graded here. For some assays here: Sequences can lack the tags named with a protein.
Experiments:
[1] = biological target: IL5RatEC_Her2(TMIC)(S1) tag of pSB_0590 (human) (UniProt Q01344); experiment: binding of recombinant IL-5 to transduced Jurkat cells (FIG. 13B); reference tag
[2] = biological target: T1, IL5Rat(S3) tag of pSB_0198 (human) (UniProt Q01344); experiment: as above
T1 sequence: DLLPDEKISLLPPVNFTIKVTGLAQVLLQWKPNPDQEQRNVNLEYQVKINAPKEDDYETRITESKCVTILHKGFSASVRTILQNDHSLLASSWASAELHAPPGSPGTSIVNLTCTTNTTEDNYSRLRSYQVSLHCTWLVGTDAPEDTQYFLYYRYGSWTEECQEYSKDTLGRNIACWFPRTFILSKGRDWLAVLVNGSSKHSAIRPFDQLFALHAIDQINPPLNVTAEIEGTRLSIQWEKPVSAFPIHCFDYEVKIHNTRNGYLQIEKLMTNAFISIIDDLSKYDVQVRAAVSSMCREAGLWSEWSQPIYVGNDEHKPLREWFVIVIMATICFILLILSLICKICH

Chains of the proteins cited; added tags and fusions are not shown. Residues count along the entry.
UniProt P05113, residues 20-134: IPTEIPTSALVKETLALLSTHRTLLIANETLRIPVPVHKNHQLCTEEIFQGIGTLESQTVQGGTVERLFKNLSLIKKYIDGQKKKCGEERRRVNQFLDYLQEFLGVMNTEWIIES

[3] = biological target: T1, IL5Rat(S3) tag of pSB_0198 (human); experiment: binding of recombinant IL-5 to transduced Jurkat cells (FIG. 10 legend); reference tag
[4] = biological target: T1, IL5Rat(S3) tag of pSB_0198 (human); experiment: binding of recombinant IL-5 to transduced Jurkat cells (FIG. 10); reference tag
[5] = biological target: T2, IL5Rat(K186A) tag of pSB_0540 (human) (UniProt Q01344); experiment: binding of recombinant IL-5 to transduced Jurkat cells (FIG. 13B)
T2 sequence: T1 sequence with K186A

[6] = biological target: IL5Rat(K186A)EC_Her2(TMIC)(S1) tag of pSB_0693 (human) (UniProt Q01344); experiment: as above
[7] = biological target: T3, IL5Rat(K186A, R188A) tag of pSB_0546 (human) (UniProt Q01344); experiment: binding of recombinant IL-5 to transduced Jurkat cells (FIG. 10)
T3 sequence: T1 sequence with K186A, R188A

[8] = biological target: T2, IL5Rat(K186A) tag of pSB_0540 (human); experiment: as above
[9] = biological target: T4, IL5Ra(K186A, R188A, M295A) tag of pSB_0552 (human) (UniProt Q01344); experiment: as above
T4 sequence: T1 sequence with K186A, R188A, M295A

[10] = biological target: T5, IL5Rat(R188A) tag of pSB_0541 (human) (UniProt Q01344); experiment: as above
T5 sequence: T1 sequence with R188A

[11] = biological target: T3, IL5Rat(K186A, R188A) tag of pSB_0546 (human); experiment: binding of recombinant IL-5 to transduced Jurkat cells (FIG. 10 legend)
[12] = biological target: T2, IL5Rat(K186A) tag of pSB_0540 (human); experiment: as above
[13] = biological target: T4, IL5Ra(K186A, R188A, M295A) tag of pSB_0552 (human); experiment: as above
[14] = biological target: T5, IL5Rat(R188A) tag of pSB_0541 (human); experiment: as above

binding [1]: binds
binding [2]: binds
binding [3]: binds
binding [4]: binds
binding [5]: binds
binding [6]: binds
binding [7]: binds
binding [8]: binds
binding [9]: binds
binding [10]: binds
binding [11]: binds
binding [12]: binds
binding [13]: binds
binding [14]: binds
Substance: recombinant IL-5 (from UniProt P05113 20-134) (ligand)
